Test results published in paper PMC9534863.
No constants are given. Whether binding was seen depends on the method and setting. Binding seen in cells or lysates may run through a third protein. Some results given as binding are weak or reduced against the parent protein; the word gives no strength.

Protein sequences, listed by entry. Tags and fused reporters are not part of them. Residues count along the entry.
UniProt P10909, residues 23-449: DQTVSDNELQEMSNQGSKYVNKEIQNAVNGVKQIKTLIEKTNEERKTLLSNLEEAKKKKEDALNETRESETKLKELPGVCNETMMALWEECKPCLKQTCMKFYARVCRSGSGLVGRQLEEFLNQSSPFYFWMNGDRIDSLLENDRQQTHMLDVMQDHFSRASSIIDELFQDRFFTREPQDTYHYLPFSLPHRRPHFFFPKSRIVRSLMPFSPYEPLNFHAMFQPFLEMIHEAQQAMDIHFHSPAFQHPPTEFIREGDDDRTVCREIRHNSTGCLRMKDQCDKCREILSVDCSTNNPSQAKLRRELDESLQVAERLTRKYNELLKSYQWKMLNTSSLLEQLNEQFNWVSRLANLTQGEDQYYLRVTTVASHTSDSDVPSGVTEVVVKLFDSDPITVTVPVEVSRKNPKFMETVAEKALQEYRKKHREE

Experiments:
Assay in all cases: co-IP; endogenous proteins in LF cell lysate (lysis buffer, Beyotime); antibody 4 °C 2 h, then protein A/G agarose 2 h, 5 washes with lysis buffer, elution in SDS loading buffer, western blot; for CLU and ALK5 the cells were treated with 5 ng/ml TGF-β1 for 24 h beforehand
[1] = biological target: T1, Activin receptor-like kinase 5 (ALK5) (human (endogenous in LF cells)) (UniProt P36897)
T1 sequence: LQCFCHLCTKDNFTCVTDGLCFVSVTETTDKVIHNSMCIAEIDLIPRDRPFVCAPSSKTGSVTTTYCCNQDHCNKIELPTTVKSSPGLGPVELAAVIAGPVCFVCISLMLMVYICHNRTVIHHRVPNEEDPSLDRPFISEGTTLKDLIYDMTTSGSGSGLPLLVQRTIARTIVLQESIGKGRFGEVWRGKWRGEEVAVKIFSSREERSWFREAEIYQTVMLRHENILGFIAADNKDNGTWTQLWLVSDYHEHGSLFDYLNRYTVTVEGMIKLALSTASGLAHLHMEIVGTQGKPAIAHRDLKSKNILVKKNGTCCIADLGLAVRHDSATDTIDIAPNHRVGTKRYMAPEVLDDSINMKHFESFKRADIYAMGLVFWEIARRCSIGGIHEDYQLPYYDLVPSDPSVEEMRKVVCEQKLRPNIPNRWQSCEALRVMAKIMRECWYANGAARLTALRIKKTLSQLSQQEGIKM

[2] = biological target: T2, protein kinase D3 (PRKD3) (human (endogenous in LF cells)) (UniProt O94806)
T2 sequence: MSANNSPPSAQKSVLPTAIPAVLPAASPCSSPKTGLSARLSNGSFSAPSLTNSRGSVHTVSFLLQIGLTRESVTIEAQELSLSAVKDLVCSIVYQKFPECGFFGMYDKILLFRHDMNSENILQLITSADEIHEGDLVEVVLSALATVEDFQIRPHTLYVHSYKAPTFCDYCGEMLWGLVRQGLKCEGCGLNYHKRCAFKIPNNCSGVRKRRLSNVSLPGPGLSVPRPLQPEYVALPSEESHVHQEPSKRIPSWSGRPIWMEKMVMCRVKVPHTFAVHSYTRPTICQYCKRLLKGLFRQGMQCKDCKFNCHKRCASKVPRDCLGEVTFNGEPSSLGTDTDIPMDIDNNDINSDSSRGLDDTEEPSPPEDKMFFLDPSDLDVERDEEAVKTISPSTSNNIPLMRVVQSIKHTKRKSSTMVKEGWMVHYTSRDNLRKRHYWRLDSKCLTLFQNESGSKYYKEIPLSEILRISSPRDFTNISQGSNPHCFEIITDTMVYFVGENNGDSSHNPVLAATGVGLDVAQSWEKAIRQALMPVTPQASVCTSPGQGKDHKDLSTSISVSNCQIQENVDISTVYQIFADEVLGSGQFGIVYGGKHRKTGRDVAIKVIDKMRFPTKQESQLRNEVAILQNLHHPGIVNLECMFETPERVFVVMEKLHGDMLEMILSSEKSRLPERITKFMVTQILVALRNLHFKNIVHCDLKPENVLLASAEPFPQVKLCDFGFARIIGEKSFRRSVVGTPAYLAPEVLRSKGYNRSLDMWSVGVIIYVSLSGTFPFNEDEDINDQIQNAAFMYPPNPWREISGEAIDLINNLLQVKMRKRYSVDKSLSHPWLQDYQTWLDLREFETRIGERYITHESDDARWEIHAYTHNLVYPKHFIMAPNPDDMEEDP

[3] = biological target: clusterin (CLU) (human (endogenous in LF cells)) (UniProt P10909)

Molecule | binding [1] | binding [2] | binding [3]
clusterin (CLU) (from UniProt P10909 23-449) | binds | binds | 
Activin receptor-like kinase 5 (ALK5) (receptor, UniProt P36897 34-503) LQCFCHLCTKDNFTCVTDGLCFVSVTETTDKVIHNSMCIAEIDLIPRDRPFVCAPSSKTGSVTTTYCCNQDHCNKIELPTTVKSSPGLGPVELAAVIAGPVCFVCISLMLMVYICHNRTVIHHRVPNEEDPSLDRPFISEGTTLKDLIYDMTTSGSGSGLPLLVQRTIARTIVLQESIGKGRFGEVWRGKWRGEEVAVKIFSSREERSWFREAEIYQTVMLRHENILGFIAADNKDNGTWTQLWLVSDYHEHGSLFDYLNRYTVTVEGMIKLALSTASGLAHLHMEIVGTQGKPAIAHRDLKSKNILVKKNGTCCIADLGLAVRHDSATDTIDIAPNHRVGTKRYMAPEVLDDSINMKHFESFKRADIYAMGLVFWEIARRCSIGGIHEDYQLPYYDLVPSDPSVEEMRKVVCEQKLRPNIPNRWQSCEALRVMAKIMRECWYANGAARLTALRIKKTLSQLSQQEGIKM |  |  | binds
protein kinase D3 (PRKD3) (enzyme, UniProt O94806 1-890) MSANNSPPSAQKSVLPTAIPAVLPAASPCSSPKTGLSARLSNGSFSAPSLTNSRGSVHTVSFLLQIGLTRESVTIEAQELSLSAVKDLVCSIVYQKFPECGFFGMYDKILLFRHDMNSENILQLITSADEIHEGDLVEVVLSALATVEDFQIRPHTLYVHSYKAPTFCDYCGEMLWGLVRQGLKCEGCGLNYHKRCAFKIPNNCSGVRKRRLSNVSLPGPGLSVPRPLQPEYVALPSEESHVHQEPSKRIPSWSGRPIWMEKMVMCRVKVPHTFAVHSYTRPTICQYCKRLLKGLFRQGMQCKDCKFNCHKRCASKVPRDCLGEVTFNGEPSSLGTDTDIPMDIDNNDINSDSSRGLDDTEEPSPPEDKMFFLDPSDLDVERDEEAVKTISPSTSNNIPLMRVVQSIKHTKRKSSTMVKEGWMVHYTSRDNLRKRHYWRLDSKCLTLFQNESGSKYYKEIPLSEILRISSPRDFTNISQGSNPHCFEIITDTMVYFVGENNGDSSHNPVLAATGVGLDVAQSWEKAIRQALMPVTPQASVCTSPGQGKDHKDLSTSISVSNCQIQENVDISTVYQIFADEVLGSGQFGIVYGGKHRKTGRDVAIKVIDKMRFPTKQESQLRNEVAILQNLHHPGIVNLECMFETPERVFVVMEKLHGDMLEMILSSEKSRLPERITKFMVTQILVALRNLHFKNIVHCDLKPENVLLASAEPFPQVKLCDFGFARIIGEKSFRRSVVGTPAYLAPEVLRSKGYNRSLDMWSVGVIIYVSLSGTFPFNEDEDINDQIQNAAFMYPPNPWREISGEAIDLINNLLQVKMRKRYSVDKSLSHPWLQDYQTWLDLREFETRIGERYITHESDDARWEIHAYTHNLVYPKHFIMAPNPDDMEEDP |  |  | binds
